Reference: PMC11076283
No constants are given. Whether binding was seen depends on the method and setting. Binding seen in cells or lysates may run through a third protein. Some binding calls cover weakened binding; strength is not graded here.

Amino acid sequences for entries named in this document (tags omitted).
UniProt Q9NY57: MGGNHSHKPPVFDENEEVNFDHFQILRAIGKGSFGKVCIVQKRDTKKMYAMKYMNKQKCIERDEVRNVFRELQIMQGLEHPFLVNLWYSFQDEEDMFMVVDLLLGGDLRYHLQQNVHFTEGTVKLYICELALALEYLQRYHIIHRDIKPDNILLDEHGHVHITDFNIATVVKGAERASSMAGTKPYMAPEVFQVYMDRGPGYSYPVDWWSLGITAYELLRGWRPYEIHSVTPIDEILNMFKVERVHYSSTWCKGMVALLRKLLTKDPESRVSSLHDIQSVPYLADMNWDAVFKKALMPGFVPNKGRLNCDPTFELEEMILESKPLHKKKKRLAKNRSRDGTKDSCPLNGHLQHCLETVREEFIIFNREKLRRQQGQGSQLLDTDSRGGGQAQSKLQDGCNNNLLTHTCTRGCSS
UniProt P06241: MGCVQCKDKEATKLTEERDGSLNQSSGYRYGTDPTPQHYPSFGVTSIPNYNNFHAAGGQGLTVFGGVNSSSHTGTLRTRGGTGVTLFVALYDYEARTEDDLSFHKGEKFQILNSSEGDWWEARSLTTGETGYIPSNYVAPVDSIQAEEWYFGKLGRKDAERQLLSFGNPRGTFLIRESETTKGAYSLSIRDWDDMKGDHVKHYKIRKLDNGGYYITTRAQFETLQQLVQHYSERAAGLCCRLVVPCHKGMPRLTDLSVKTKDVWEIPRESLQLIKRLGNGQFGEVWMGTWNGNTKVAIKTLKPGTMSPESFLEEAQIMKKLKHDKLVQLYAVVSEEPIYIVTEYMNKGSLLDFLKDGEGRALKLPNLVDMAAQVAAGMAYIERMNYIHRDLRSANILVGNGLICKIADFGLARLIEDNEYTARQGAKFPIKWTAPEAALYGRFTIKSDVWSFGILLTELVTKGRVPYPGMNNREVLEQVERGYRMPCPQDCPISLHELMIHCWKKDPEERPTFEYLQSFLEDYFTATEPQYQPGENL

Key:
[1] = target: Endogenous YANK2 (human (endogenous in U87MG and Hs683)) (UniProt Q9NY57); assay: co-IP; endogenous YANK2 immunoprecipitated from glioma cells (U87MG or Hs683); blot with anti-Fyn or anti-p70S6K
His-YANK2-Flag (human) = His-YANK2-Flag (human) (UniProt Q9NY57); assay: pull-down; HEK293T cells co-transfected for 48 h with pCMV-His-YANK2-Flag and the partner plasmid; pulldown with Ni-NTA beads; blot with anti-Myc or anti-HA

| binding [1] | binding (His-YANK2-Flag (human)) | Substance |
| --- | --- | --- |
| binds | – | Endogenous Fyn (from UniProt P06241 1-537) (enzyme) |
| – | binds | Myc-Fyn-Flag (from UniProt P06241 1-537) (enzyme) |
